From the supplement of paper PMC12823440, “Inhibitors supercharge kinase turnover through native proteolytic circuits” (Nature, 2025)
Structures can show the parent of a compound that is named as a salt. The list shows a part of the results. The calls rarely recur for the same compound in another form.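 In K562 cells expressing nanoluciferase-fused kinases, luminescence was recorded at 4 h intervals between 2 and 18 h, normalized as percent of control with DMSO at 100% and a positive control at 0%. A significant (2 sigma) signal drop marks a time point as decreased. The authors' rule for a hit is not shown and takes in more than the number of time points.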

The chains behind the UniProt entries cited, without tags or fusion partners. Where a name states a change or a piece, a line headed by the entry shows the natural chain unless it says otherwise.
UniProt P50613: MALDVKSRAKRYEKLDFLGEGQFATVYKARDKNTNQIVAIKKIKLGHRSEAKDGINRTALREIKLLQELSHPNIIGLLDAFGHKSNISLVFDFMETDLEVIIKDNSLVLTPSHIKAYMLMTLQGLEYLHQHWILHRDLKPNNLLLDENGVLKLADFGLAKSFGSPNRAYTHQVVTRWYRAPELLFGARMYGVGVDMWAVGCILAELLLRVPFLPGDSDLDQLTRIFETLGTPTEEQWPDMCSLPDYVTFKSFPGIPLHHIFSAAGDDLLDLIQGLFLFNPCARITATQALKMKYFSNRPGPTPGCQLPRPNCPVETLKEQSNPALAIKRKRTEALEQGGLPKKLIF
UniProt P50750, whole entry: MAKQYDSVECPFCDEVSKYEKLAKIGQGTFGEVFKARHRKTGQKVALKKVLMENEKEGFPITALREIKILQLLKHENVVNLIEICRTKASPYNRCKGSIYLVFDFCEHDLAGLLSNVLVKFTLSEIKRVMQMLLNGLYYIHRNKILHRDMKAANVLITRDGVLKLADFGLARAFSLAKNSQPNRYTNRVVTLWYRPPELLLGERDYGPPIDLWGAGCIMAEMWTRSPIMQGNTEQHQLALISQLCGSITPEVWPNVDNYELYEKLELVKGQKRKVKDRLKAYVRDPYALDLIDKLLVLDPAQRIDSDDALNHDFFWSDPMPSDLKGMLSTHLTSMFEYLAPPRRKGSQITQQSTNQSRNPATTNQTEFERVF
UniProt O96017, whole entry: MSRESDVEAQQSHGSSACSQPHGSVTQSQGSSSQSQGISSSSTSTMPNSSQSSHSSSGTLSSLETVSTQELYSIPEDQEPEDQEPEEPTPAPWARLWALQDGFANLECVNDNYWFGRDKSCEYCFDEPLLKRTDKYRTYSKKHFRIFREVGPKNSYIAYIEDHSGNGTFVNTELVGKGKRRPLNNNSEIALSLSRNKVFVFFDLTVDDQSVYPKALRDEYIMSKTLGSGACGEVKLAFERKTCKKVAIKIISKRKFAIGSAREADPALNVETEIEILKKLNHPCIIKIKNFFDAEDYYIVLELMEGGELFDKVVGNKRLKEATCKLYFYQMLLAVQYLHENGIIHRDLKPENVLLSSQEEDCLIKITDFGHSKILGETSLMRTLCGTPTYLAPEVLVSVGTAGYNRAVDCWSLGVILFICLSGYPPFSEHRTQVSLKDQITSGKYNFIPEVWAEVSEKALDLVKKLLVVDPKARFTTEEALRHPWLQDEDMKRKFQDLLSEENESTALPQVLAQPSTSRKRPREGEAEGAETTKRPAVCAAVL
UniProt P07333, whole entry: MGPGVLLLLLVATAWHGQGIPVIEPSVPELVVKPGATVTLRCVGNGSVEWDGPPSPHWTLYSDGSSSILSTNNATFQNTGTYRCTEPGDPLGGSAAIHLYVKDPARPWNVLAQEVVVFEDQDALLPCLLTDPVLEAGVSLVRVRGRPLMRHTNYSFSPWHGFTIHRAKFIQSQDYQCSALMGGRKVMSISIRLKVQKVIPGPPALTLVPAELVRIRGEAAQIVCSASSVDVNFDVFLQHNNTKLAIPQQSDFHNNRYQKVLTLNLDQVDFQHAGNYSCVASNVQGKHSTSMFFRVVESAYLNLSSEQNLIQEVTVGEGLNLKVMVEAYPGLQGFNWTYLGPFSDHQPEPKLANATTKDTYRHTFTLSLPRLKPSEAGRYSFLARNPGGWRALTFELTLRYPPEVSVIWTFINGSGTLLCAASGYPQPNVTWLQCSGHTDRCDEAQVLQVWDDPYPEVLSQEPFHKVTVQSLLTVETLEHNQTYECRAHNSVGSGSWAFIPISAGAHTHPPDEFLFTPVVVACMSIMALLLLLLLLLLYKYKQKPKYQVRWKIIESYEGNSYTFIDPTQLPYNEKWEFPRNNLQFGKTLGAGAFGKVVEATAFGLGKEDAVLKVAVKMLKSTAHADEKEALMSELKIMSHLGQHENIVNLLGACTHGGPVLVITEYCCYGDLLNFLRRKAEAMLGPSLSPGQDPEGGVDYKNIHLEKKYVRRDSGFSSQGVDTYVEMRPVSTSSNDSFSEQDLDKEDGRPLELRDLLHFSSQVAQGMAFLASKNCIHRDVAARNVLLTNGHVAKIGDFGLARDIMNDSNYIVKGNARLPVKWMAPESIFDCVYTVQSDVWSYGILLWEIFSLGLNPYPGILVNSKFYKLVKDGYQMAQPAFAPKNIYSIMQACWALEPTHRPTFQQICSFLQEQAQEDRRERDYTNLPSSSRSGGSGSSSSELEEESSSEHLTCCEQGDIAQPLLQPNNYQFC
UniProt P41240: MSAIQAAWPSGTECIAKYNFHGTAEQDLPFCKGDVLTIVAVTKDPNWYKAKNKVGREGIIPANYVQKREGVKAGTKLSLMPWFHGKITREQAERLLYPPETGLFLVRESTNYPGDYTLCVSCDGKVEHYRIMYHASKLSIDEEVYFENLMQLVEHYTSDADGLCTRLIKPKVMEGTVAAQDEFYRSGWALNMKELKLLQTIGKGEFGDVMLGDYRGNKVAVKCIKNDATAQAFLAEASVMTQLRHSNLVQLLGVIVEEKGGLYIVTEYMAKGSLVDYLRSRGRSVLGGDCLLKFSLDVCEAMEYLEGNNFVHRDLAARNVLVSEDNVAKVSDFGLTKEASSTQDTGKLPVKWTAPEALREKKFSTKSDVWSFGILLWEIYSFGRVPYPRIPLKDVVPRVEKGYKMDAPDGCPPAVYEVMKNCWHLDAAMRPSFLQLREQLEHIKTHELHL
UniProt P48729: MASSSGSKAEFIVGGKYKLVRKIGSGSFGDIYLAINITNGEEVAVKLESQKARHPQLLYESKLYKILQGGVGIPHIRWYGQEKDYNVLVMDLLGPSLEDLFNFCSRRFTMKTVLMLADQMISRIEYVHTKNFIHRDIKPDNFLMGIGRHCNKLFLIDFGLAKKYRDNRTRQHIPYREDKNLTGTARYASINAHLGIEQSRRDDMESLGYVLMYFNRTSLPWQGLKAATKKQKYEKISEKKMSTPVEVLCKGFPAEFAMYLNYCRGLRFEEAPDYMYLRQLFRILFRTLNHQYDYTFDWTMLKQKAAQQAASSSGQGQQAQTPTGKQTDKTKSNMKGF
UniProt P48730: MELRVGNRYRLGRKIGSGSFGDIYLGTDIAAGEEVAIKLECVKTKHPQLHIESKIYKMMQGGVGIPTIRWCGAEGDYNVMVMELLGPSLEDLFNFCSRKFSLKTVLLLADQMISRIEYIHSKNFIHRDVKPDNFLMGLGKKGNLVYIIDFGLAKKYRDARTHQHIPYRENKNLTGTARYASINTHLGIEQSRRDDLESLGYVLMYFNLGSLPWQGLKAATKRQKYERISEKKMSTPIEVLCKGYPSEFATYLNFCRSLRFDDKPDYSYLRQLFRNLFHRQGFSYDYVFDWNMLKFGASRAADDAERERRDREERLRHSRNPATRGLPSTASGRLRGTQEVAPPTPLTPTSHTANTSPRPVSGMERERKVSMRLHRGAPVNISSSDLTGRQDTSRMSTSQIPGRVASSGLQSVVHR
UniProt Q08345: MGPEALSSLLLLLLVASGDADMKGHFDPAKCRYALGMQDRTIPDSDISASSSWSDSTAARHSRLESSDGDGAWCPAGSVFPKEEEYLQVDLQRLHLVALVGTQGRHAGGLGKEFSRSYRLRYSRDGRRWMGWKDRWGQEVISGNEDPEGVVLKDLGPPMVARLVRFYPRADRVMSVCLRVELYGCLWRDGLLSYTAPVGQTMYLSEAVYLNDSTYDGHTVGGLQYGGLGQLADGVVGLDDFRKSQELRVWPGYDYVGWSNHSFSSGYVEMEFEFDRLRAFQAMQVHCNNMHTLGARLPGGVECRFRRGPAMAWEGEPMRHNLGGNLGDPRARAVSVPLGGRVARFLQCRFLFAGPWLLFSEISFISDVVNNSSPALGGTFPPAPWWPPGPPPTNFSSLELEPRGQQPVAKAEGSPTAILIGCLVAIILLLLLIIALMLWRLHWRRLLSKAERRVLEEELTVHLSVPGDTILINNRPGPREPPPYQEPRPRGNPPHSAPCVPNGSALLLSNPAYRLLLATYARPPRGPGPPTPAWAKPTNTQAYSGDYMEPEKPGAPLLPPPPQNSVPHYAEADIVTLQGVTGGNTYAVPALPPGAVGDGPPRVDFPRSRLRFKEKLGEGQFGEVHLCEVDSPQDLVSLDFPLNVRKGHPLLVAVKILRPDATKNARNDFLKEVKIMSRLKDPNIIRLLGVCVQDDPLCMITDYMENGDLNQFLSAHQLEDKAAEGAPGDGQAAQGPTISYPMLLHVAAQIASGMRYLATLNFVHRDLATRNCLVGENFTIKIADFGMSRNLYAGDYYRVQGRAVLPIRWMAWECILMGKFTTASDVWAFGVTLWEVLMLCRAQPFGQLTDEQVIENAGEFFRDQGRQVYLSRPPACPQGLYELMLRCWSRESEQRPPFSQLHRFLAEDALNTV
UniProt Q9Y463, whole entry, looked up: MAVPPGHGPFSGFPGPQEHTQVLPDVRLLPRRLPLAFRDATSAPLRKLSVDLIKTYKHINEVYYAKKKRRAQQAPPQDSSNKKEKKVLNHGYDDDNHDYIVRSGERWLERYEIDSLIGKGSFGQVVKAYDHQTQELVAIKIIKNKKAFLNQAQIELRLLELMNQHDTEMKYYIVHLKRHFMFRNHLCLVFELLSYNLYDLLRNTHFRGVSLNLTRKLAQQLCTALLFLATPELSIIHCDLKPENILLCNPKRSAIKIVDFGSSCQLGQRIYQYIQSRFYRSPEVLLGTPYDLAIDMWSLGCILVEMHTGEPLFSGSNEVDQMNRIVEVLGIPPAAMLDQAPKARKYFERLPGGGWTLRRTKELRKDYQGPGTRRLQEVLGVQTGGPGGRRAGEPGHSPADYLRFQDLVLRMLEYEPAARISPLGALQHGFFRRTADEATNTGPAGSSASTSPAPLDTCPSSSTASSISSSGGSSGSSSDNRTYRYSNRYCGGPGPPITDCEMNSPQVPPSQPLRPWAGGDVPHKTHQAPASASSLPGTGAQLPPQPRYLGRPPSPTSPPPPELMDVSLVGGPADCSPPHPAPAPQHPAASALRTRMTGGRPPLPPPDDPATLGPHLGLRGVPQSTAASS
UniProt Q92630: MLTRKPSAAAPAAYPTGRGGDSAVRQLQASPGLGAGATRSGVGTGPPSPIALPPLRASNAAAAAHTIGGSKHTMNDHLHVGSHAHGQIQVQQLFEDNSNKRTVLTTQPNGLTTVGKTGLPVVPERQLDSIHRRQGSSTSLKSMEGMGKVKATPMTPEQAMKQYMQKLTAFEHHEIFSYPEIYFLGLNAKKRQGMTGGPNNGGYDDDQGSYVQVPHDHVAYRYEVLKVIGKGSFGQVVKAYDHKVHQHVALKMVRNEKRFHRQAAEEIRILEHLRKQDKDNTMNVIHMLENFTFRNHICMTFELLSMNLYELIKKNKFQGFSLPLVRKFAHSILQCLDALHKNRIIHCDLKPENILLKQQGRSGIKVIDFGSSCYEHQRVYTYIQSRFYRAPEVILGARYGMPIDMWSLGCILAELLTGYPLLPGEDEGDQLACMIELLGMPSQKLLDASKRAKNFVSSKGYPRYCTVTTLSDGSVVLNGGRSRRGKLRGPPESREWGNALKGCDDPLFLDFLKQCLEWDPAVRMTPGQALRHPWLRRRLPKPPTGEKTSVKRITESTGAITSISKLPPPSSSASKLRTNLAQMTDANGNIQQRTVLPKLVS

Tests used:
Test in all cases: kinase-Nluc reporter destabilization hit call (1 = scored as downregulated) (binary); higher = compound decreases kinase abundance
Details in all cases: K562; 2-18 h
CDK7 = CDK7 (UniProt P50613)
CDK9 = CDK9 (UniProt P50750)
CHEK2 = CHEK2 (UniProt O96017)
CSF1R = CSF1R (UniProt P07333)
CSK = CSK (UniProt P41240)
CSNK1A1 = CSNK1A1 (UniProt P48729)
CSNK1D = CSNK1D (UniProt P48730)
DDR1 = DDR1 (UniProt Q08345)
DYRK1B = DYRK1B (UniProt Q9Y463)
DYRK2 = DYRK2 (UniProt Q92630)

SMILES | kinase-Nluc reporter destabilization hit call (CDK7) | kinase-Nluc reporter destabilization hit call (CDK9) | kinase-Nluc reporter destabilization hit call (CHEK2) | kinase-Nluc reporter destabilization hit call (CSF1R) | kinase-Nluc reporter destabilization hit call (CSK) | kinase-Nluc reporter destabilization hit call (CSNK1A1) | kinase-Nluc reporter destabilization hit call (CSNK1D) | kinase-Nluc reporter destabilization hit call (DDR1) | kinase-Nluc reporter destabilization hit call (DYRK1B) | kinase-Nluc reporter destabilization hit call (DYRK2)
Cc1cnc(Nc2ccc(F)cc2Cl)nc1-c1c[nH]c(C(=O)N[C@H](CO)c2cccc(Cl)c2)c1 (10 µM) | inactive: 0 | inactive: 0 | inactive: 0 | inactive: 0 | inactive: 0 | inactive: 0 | inactive: 0 | inactive: 0 | inactive: 0 | inactive: 0
CN1C(=O)[C@@H](NC(=O)c2cc(Cc3ccccc3)on2)COc2ccccc21 (10 µM) | inactive: 0 | inactive: 0 | inactive: 0 | inactive: 0 | inactive: 0 | inactive: 0 | inactive: 0 | inactive: 0 | inactive: 0 | inactive: 0
CC(C1CC1)n1cnc2c(NCc3cccc(C(F)(F)F)c3)nc(NCCN(C)C)nc21 (stereo not given) (10 µM) | inactive: 0 | inactive: 0 | inactive: 0 | inactive: 0 | inactive: 0 | inactive: 0 | inactive: 0 | inactive: 0 | inactive: 0 | inactive: 0
O=S(=O)(c1ccc(O)cc1O)N1Cc2cc(O)cc(O)c2C1 (10 µM) | inactive: 0 | inactive: 0 | inactive: 0 | inactive: 0 | inactive: 0 | inactive: 0 | inactive: 0 | inactive: 0 | inactive: 0 | inactive: 0
CCn1c(N)c(C(=O)NC)c(=O)c2ccc(C#CC(C)(O)COC)nc21 (stereo not given) (10 µM) | inactive: 0 | inactive: 0 | inactive: 0 | inactive: 0 | inactive: 0 | inactive: 0 | inactive: 0 | inactive: 0 | inactive: 0 | inactive: 0
Cc1ccc(C2CC(=O)NC(SCC(=O)Nc3nccs3)=C2C#N)cc1 (stereo not given) [Necrostatin-34] (10 µM) | inactive: 0 | inactive: 0 | inactive: 0 | inactive: 0 | inactive: 0 | inactive: 0 | inactive: 0 | inactive: 0 | inactive: 0 | inactive: 0
CC(C)n1c(CO)nc2c(F)cc(-c3nc(Nc4ccc(CN5CCNCC5)cn4)ncc3F)cc21 (10 µM) | inactive: 0 | active: 1 | inactive: 0 | inactive: 0 | inactive: 0 | inactive: 0 | inactive: 0 | inactive: 0 | inactive: 0 | inactive: 0
Nc1ccc(Sc2nc3ccccc3s2)c(Cl)c1 [KRAS inhibitor-9] (10 µM) | inactive: 0 | inactive: 0 | inactive: 0 | inactive: 0 | inactive: 0 | inactive: 0 | inactive: 0 | inactive: 0 | inactive: 0 | inactive: 0
N#Cc1cnc(Nc2cc(NC[C@H]3CNCCO3)c(C(F)(F)F)cn2)cn1 (10 µM) | inactive: 0 | inactive: 0 | inactive: 0 | inactive: 0 | inactive: 0 | inactive: 0 | inactive: 0 | inactive: 0 | inactive: 0 | inactive: 0
NC(=O)c1c(NC(=O)C2CC2)sc2c1CCCC2 (10 µM) | inactive: 0 | inactive: 0 | inactive: 0 | inactive: 0 | inactive: 0 | inactive: 0 | inactive: 0 | inactive: 0 | inactive: 0 | inactive: 0
CNc1cc2c(Nc3cccc(Br)c3)ncnc2cn1 (10 µM) | inactive: 0 | inactive: 0 | inactive: 0 | inactive: 0 | inactive: 0 | inactive: 0 | inactive: 0 | inactive: 0 | inactive: 0 | inactive: 0
CO/N=C1/C(c2c(O)[nH]c3cc(Cl)c(Cl)cc23)=Nc2ccccc21 (10 µM) | inactive: 0 | inactive: 0 | inactive: 0 | inactive: 0 | inactive: 0 | inactive: 0 | inactive: 0 | inactive: 0 | inactive: 0 | inactive: 0
CNC(=O)CN1CCC(Oc2cc3c(Nc4cccc(Cl)c4F)ncnc3cc2OC)CC1 [Sapitinib] (10 µM) | inactive: 0 | inactive: 0 | inactive: 0 | inactive: 0 | inactive: 0 | inactive: 0 | inactive: 0 | inactive: 0 | inactive: 0 | inactive: 0
CCc1c(C(=O)NNC(=O)[C@H](O)c2cc(F)cc(F)c2)ccc(O)c1C (10 µM) | inactive: 0 | inactive: 0 | inactive: 0 | inactive: 0 | inactive: 0 | inactive: 0 | inactive: 0 | inactive: 0 | inactive: 0 | inactive: 0
O=c1cc(-c2ccc(O[C@@H]3O[C@H](CO)[C@@H](O)[C@H](O)[C@H]3O)cc2)oc2cc(O)c([C@@H]3O[C@H](CO)[C@@H](O)[C@H](O)[C@H]3O[C@@H]3OC[C@H](O)[C@H](O)[C@H]3O)c(O)c12 [Vaccarin] (10 µM) | inactive: 0 | inactive: 0 | inactive: 0 | inactive: 0 | inactive: 0 | inactive: 0 | inactive: 0 | inactive: 0 | inactive: 0 | inactive: 0
CN(C)c1ccc(/C=C2\C(=O)Nc3ccccc32)c2ccccc12 (10 µM) | inactive: 0 | inactive: 0 | inactive: 0 | inactive: 0 | inactive: 0 | inactive: 0 | inactive: 0 | inactive: 0 | inactive: 0 | inactive: 0
CCOC(=O)c1c(N2CCc3ccc(OC)cc3C2)oc(C=C2C=Nc3ncccc32)c1O (10 µM) | inactive: 0 | inactive: 0 | inactive: 0 | inactive: 0 | inactive: 0 | inactive: 0 | inactive: 0 | inactive: 0 | inactive: 0 | inactive: 0
COc1cc2nc(-c3cc(F)ccc3O)nc(N[C@@H]3CNC[C@H]3C(C)(C)O)c2cc1OC (2.5 µM) | inactive: 0 | inactive: 0 | inactive: 0 | inactive: 0 | inactive: 0 | inactive: 0 | inactive: 0 | inactive: 0 | inactive: 0 | inactive: 0

Quoted at random: two compounds from above, in no set order.
SMILES | kinase-Nluc reporter destabilization hit call (CDK7) | kinase-Nluc reporter destabilization hit call (CDK9) | kinase-Nluc reporter destabilization hit call (CHEK2) | kinase-Nluc reporter destabilization hit call (CSF1R) | kinase-Nluc reporter destabilization hit call (CSK) | kinase-Nluc reporter destabilization hit call (CSNK1A1) | kinase-Nluc reporter destabilization hit call (CSNK1D) | kinase-Nluc reporter destabilization hit call (DDR1) | kinase-Nluc reporter destabilization hit call (DYRK1B) | kinase-Nluc reporter destabilization hit call (DYRK2)
CC(C1CC1)n1cnc2c(NCc3cccc(C(F)(F)F)c3)nc(NCCN(C)C)nc21 (stereo not given) (10 µM) | inactive: 0 | inactive: 0 | inactive: 0 | inactive: 0 | inactive: 0 | inactive: 0 | inactive: 0 | inactive: 0 | inactive: 0 | inactive: 0
CN(C)c1ccc(/C=C2\C(=O)Nc3ccccc32)c2ccccc12 (10 µM) | inactive: 0 | inactive: 0 | inactive: 0 | inactive: 0 | inactive: 0 | inactive: 0 | inactive: 0 | inactive: 0 | inactive: 0 | inactive: 0

Next entries follow.

SMILES | kinase-Nluc reporter destabilization hit call (CDK7) | kinase-Nluc reporter destabilization hit call (CDK9) | kinase-Nluc reporter destabilization hit call (CHEK2) | kinase-Nluc reporter destabilization hit call (CSF1R) | kinase-Nluc reporter destabilization hit call (CSK) | kinase-Nluc reporter destabilization hit call (CSNK1A1) | kinase-Nluc reporter destabilization hit call (CSNK1D) | kinase-Nluc reporter destabilization hit call (DDR1) | kinase-Nluc reporter destabilization hit call (DYRK1B) | kinase-Nluc reporter destabilization hit call (DYRK2)
Cc1nc(NC(=O)N2CCC[C@H]2C(N)=O)sc1-c1ccnc(C(C)(C)C(F)(F)F)c1 [Alpelisib] (2.5 µM) | inactive: 0 | inactive: 0 | inactive: 0 | inactive: 0 | inactive: 0 | inactive: 0 | inactive: 0 | inactive: 0 | inactive: 0 | inactive: 0
C[C@@H]1CN(Cc2ccc(F)cc2)[C@@H](C)CN1C(=O)c1cc2c(C(=O)C(=O)N(C)C)cn(C)c2cc1Cl [Talmapimod] (10 µM) | inactive: 0 | inactive: 0 | inactive: 0 | inactive: 0 | inactive: 0 | inactive: 0 | inactive: 0 | inactive: 0 | inactive: 0 | inactive: 0
COc1c(Nc2ncc(Cl)c(N[C@H]3[C@@H](C(N)=O)[C@@H]4C=C[C@H]3C4)n2)ccc2c1CC[C@@H](N1CCOCC1)CC2 (10 µM) | inactive: 0 | inactive: 0 | inactive: 0 | inactive: 0 | inactive: 0 | inactive: 0 | inactive: 0 | inactive: 0 | inactive: 0 | inactive: 0
COc1ccc(CN2CCC(c3ccc4nc(C(=O)N5CCN(Cc6ccc(C(F)(F)F)cc6)CC5)[nH]c4c3)CC2)cn1 (2.5 µM) | inactive: 0 | inactive: 0 | inactive: 0 | inactive: 0 | inactive: 0 | inactive: 0 | inactive: 0 | inactive: 0 | inactive: 0 | inactive: 0
CC/C(=C(\c1ccccc1)c1ccc(OCCNC)cc1)c1ccccc1 [N-Desmethyltamoxifen (hydrochloride)] (2.5 µM) | inactive: 0 | inactive: 0 | inactive: 0 | inactive: 0 | inactive: 0 | inactive: 0 | inactive: 0 | inactive: 0 | inactive: 0 | inactive: 0
O=C1C=CC2=C3c4cc(O)c(O)cc4CC3(O)COC2=C1O (stereo not given) [Hematein] (10 µM) | inactive: 0 | inactive: 0 | inactive: 0 | inactive: 0 | inactive: 0 | inactive: 0 | inactive: 0 | inactive: 0 | inactive: 0 | inactive: 0
CN(C)c1cc[n+](Cc2ccc(OCCOc3ccc(C[n+]4ccc(N(C)C)cc4)cc3)cc2)cc1 (10 µM) | inactive: 0 | inactive: 0 | inactive: 0 | inactive: 0 | inactive: 0 | inactive: 0 | inactive: 0 | inactive: 0 | inactive: 0 | inactive: 0
CCOC(=O)c1c(C)[nH]c(C=C2C(=O)Nc3ccccc32)c1C (10 µM) | inactive: 0 | inactive: 0 | inactive: 0 | inactive: 0 | inactive: 0 | inactive: 0 | inactive: 0 | inactive: 0 | inactive: 0 | inactive: 0
C=CC(=O)Nc1cc(Nc2nccc(-c3cn(C)c4ccccc34)n2)c(OCC(F)(F)F)nc1N(C)CCNC [AST5902  (trimesylate)] (2.5 µM) | inactive: 0 | inactive: 0 | inactive: 0 | inactive: 0 | inactive: 0 | inactive: 0 | inactive: 0 | inactive: 0 | inactive: 0 | inactive: 0
O=C(NC[C@H](O)CO)c1ccncc1Nc1ccc(I)cc1F [Pimasertib] (10 µM) | inactive: 0 | inactive: 0 | inactive: 0 | inactive: 0 | inactive: 0 | inactive: 0 | inactive: 0 | inactive: 0 | inactive: 0 | inactive: 0
O=c1c(O)c(-c2ccc(O)c(O)c2)oc2cc(O)c(O)c(O)c12 [Quercetagetin] (10 µM) | inactive: 0 | inactive: 0 | inactive: 0 | inactive: 0 | inactive: 0 | inactive: 0 | inactive: 0 | inactive: 0 | inactive: 0 | inactive: 0
COc1cc(Nc2ccnc3ccc(Br)cc23)cc(OC)c1OC (2.5 µM) | inactive: 0 | inactive: 0 | inactive: 0 | inactive: 0 | inactive: 0 | inactive: 0 | inactive: 0 | inactive: 0 | inactive: 0 | inactive: 0
N#CC(=C(/N)Sc1ccccc1N)/C(C#N)=C(\N)Sc1ccccc1N (10 µM) | inactive: 0 | inactive: 0 | inactive: 0 | inactive: 0 | inactive: 0 | inactive: 0 | inactive: 0 | inactive: 0 | inactive: 0 | inactive: 0
CC(C)c1cc2c(c(O)c1O)[C@@]13CCCC(C)(C)[C@@H]1C[C@@H]2OC3=O [Carnosol] (2.5 µM) | inactive: 0 | inactive: 0 | inactive: 0 | inactive: 0 | inactive: 0 | inactive: 0 | inactive: 0 | inactive: 0 | inactive: 0 | inactive: 0
CC(C)(C)S(=O)(=O)c1cc2c(Nc3ccc4scnc4c3)ncnc2cc1OCCOP(=O)(O)O (2 µM) | inactive: 0 | inactive: 0 | inactive: 0 | inactive: 0 | inactive: 0 | inactive: 0 | inactive: 0 | inactive: 0 | inactive: 0 | inactive: 0
CC1=CC(=O)C(C(C)C)=C/C1=N/OC(=O)c1ccccc1C [Poloxin] (2.5 µM) | inactive: 0 | inactive: 0 | inactive: 0 | inactive: 0 | inactive: 0 | inactive: 0 | inactive: 0 | inactive: 0 | inactive: 0 | inactive: 0
CN1CCC(Nc2nc(Nc3ccc(Oc4ccccc4)cc3)c3c(=O)[nH]cc(Br)c3n2)CC1 (2.5 µM) | inactive: 0 | inactive: 0 | inactive: 0 | inactive: 0 | inactive: 0 | inactive: 0 | inactive: 0 | active: 1 | inactive: 0 | inactive: 0
